Measurements reported in PubChem BioAssay AID504793 (Drosophila RNAi Screening Center, 2011).
The screen tested about 23,000 reagents; shown is a random part of those with a known target gene and a result. Over the whole deposit, 62 (0.27%) got an active call. 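Calls come from follow-up tests whose scores are not deposited, so confirmed genes may have low counts here; counts are not normalised per plate.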 Raw values vary from plate to plate and are shown uncorrected. Names joined by + are all predicted targets of the reagent.

Screen: 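Knock-downs allowing continued mitosis even though DNA is damaged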 (primary screen)
System: Drosophila S2R+ cells
Reagent: long dsRNA against Drosophila genes, about 0.25 µg dsRNA per well
Time to read-out: 4 days of dsRNA, then 4 hours of drug before read-out
Treatment: doxorubicin 0.5 µM for 4 hours to cause double-strand breaks, in cells also given a low, harmless dose of dsRNA against nbs to sensitise the assay
Measurement: 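Mitotic index as the number of phospho-histone H3-positive cells in each well following doxorubicin, given as raw counts without normalisation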
Reading the numbers: mitotic cells: higher = more cells in mitosis, weaker G2 arrest
Rule for the call: 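a call needs confirmation in secondary tests, with other dsRNAs and a check of mitotic timing without damage, not just a high primary count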
Calls: active = confirmed in follow-up tests; inactive = not confirmed

gene	amplicon	mitotic cells, replicate 1	Outcome
CG10904	DRSC04084	5	inactive
Mip (Myoinhibiting peptide precursor)	DRSC23429	3	inactive
Pep (Protein on ecdysone puffs)	DRSC11252	1	inactive
Golgin245 (Golgin-245)	DRSC04374	8	inactive
Golgin245 (Golgin-245)	DRSC22012	7	inactive
Golgin245 (Golgin-245)	DRSC30015	13	inactive
DNAlig3 (DNA ligase 3)	DRSC15201	6	inactive
DNAlig3 (DNA ligase 3)	DRSC29603	3	inactive
Mad	DRSC00759	4	inactive
neo (neyo)	DRSC16316	5	inactive
neo (neyo)	DRSC24164	7	inactive
CG11159	DRSC06050	5	inactive
CG2663	DRSC12314	5	inactive
CG2663	DRSC28701	7	inactive
Ciz1 (Ciz1 zinc finger protein)	DRSC09675	6	inactive
Ciz1 (Ciz1 zinc finger protein)	DRSC25065		inactive
CG15611	DRSC06563	4	inactive
CG15611	DRSC06564	3	inactive
elfless	DRSC02451	6	inactive
Cyp313a1 (Cytochrome P450 313a1)	DRSC16624	4	inactive
Cyp313a1 (Cytochrome P450 313a1)	DRSC28812	5	inactive
CG32544	DRSC20033	1	inactive
CG32544	DRSC25570	6	inactive
Xrcc2 (X-ray repair cross complementing 2)	DRSC19984	9	inactive
Xrcc2 (X-ray repair cross complementing 2)	DRSC29513	2	inactive

The list goes on; the last 3 above are carried over.
gene	amplicon	mitotic cells, replicate 1	Outcome
CG32544	DRSC25570	6	inactive
Xrcc2 (X-ray repair cross complementing 2)	DRSC19984	9	inactive
Xrcc2 (X-ray repair cross complementing 2)	DRSC29513	2	inactive
Vajk3	DRSC01883	3	inactive
Vajk3	DRSC25405	8	inactive
Semp1 (Seminal metalloprotease-1)	DRSC01874	5	inactive
Coq7 + shf	DRSC18448	9	inactive
l(2)k05819 (lethal (2) k05819)	DRSC00826	4	inactive
Lrpprc2 (Leucine-rich pentatricopeptide repeat containing 2)	DRSC18605	5	inactive
Lrpprc2 (Leucine-rich pentatricopeptide repeat containing 2)	DRSC29751	10	inactive
CG5347	DRSC19942	12	inactive
GstD6 (Glutathione S transferase D6)	DRSC16687	4	inactive
GstD6 (Glutathione S transferase D6)	DRSC24208	7	inactive
Ror	DRSC03414	3	inactive
SC35 (SR family splicing factor SC35)	DRSC03425	8	inactive
SC35 (SR family splicing factor SC35)	DRSC25427	6	inactive
SC35 (SR family splicing factor SC35)	DRSC27081	5	inactive
CG30414	DRSC04372	6	inactive
CG30414	DRSC28748	7	inactive
mal (maroon-like)	DRSC20581	3	inactive
mal (maroon-like)	DRSC27085	3	inactive
CG6380	DRSC02950	5	inactive
CG31454	DRSC14365	3	inactive
CG31454	DRSC22801	10	inactive
CG31454	DRSC24377	8	inactive
